Measurements reported in PubChem BioAssay AID1159584 (Peter MacCallum Cancer Centre, 2016)

- Test: 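Genes whose loss is lethal only together with E-cadherin loss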 (primary screen)
- System: human MCF10A breast epithelial cells, parental and CDH1-null
- Knock-down reagent: siRNA against human genes
- Measurement: 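Cell viability by CellTiter-Glo ATP luminescence, each line scaled to the mean of mock wells across plates, then CDH1-null over parental ratio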
- Scale: CDH1-null / parental viability ratio: higher = CDH1-null cells survive relatively better than parental; CDH1-null viability vs mock: higher = more viable CDH1-null cells; parental viability vs mock: higher = more viable parental cells
The deposit covers about 18,000 reagents; below is an unselected part. No sequences are given here. The record does not give: the amount of reagent, the time to read-out.

| gene knocked down | CDH1-null / parental viability ratio | CDH1-null viability vs mock (fraction of mock) | parental viability vs mock (fraction of mock) |
| --- | --- | --- | --- |
| PIERCE1 | 1.43 | 0.9 | 0.63 |
| ORMDL2 | 1.16 | 0.74 | 0.64 |
| DUX4L1 | 1.44 | 1.24 | 0.86 |
| ACTN1 | 1.22 | 0.9 | 0.74 |
| FGF16 | 0.96 | 0.96 | 1 |
| YTHDC1 | 0.7 | 0.52 | 0.74 |
| ADORA3 | 0.74 | 0.52 | 0.7 |
| KDELR3 | 1.15 | 0.78 | 0.68 |
| HIGD1B | 1.13 | 1.06 | 0.94 |
| ARL6IP5 | 0.96 | 1.08 | 1.12 |
| GEMIN6 | 0.93 | 0.56 | 0.6 |
| KHDC4 | 1.13 | 0.85 | 0.75 |
| TTC7A | 1.07 | 0.6 | 0.56 |
| PAK3 | 0.89 | 0.75 | 0.84 |
| RPS6KC1 | 1.04 | 0.73 | 0.7 |
| CDC42EP2 | 0.82 | 0.62 | 0.76 |
| SLC25A16 | 1.14 | 0.89 | 0.78 |
| RGS1 | 1.54 | 0.74 | 0.48 |
| TSPAN9 | 1.05 | 0.84 | 0.8 |
| RAB25 | 1.33 | 1.13 | 0.85 |
| RAB5IF | 1.43 | 0.66 | 0.46 |
| PEX12 | 0.97 | 0.6 | 0.62 |
| CES2 | 1.31 | 0.76 | 0.58 |
| NAPEPLD | 0.82 | 1.12 | 1.36 |
| MTMR7 | 1.59 | 0.92 | 0.58 |
| PSAP | 0.71 | 0.44 | 0.62 |
| SLC35G3 | 1.05 | 0.67 | 0.64 |
| OR5A2 | 1.09 | 1 | 0.92 |
| BOK | 1.13 | 1.06 | 0.94 |
| UTS2 | 1.02 | 0.82 | 0.8 |
| ZNF614 | 1.11 | 1 | 0.9 |
| PRB1 | 1.09 | 0.82 | 0.75 |
| COL18A1-AS1 | 1.39 | 0.57 | 0.41 |
| SLC7A9 | 1.01 | 1 | 0.99 |
| ARPC1B | 1 | 0.32 | 0.32 |
| OR4M1 | 1.14 | 0.66 | 0.58 |
| HNRNPLL | 0.74 | 0.58 | 0.78 |
| CSTA | 1.01 | 0.75 | 0.74 |
| PDE6H | 0.97 | 0.76 | 0.78 |
| KIF24 | 1 | 0.55 | 0.55 |
| PYROXD1 | 1.23 | 1.08 | 0.88 |
| SPEM2 | 1 | 1 | 1 |
| KHDRBS3 | 0.92 | 0.88 | 0.96 |
| DNAH1 | 1.16 | 0.92 | 0.79 |
| LMNB1 | 1.24 | 0.46 | 0.37 |
| VMA22 | 1.15 | 0.76 | 0.66 |
| TBX19 | 0.96 | 0.86 | 0.9 |
| ALG1 | 0.91 | 0.69 | 0.76 |
| ANGPTL2 | 1.2 | 1.08 | 0.9 |
| SPNS1 | 0.98 | 0.95 | 0.97 |
| OR4K5 | 1.16 | 0.74 | 0.64 |
| KRT9 | 1.06 | 1.06 | 1 |
| CD163 | 1.01 | 0.86 | 0.85 |
| MTG2 | 1.07 | 0.64 | 0.6 |
| MCM8 | 1 | 0.93 | 0.93 |
| CCDC197 | 1.09 | 0.47 | 0.43 |
| KIF27 | 1.2 | 1.07 | 0.89 |

The list goes on (9 carried over from the part before).
| gene knocked down | CDH1-null / parental viability ratio | CDH1-null viability vs mock (fraction of mock) | parental viability vs mock (fraction of mock) |
| --- | --- | --- | --- |
| ANGPTL2 | 1.2 | 1.08 | 0.9 |
| SPNS1 | 0.98 | 0.95 | 0.97 |
| OR4K5 | 1.16 | 0.74 | 0.64 |
| KRT9 | 1.06 | 1.06 | 1 |
| CD163 | 1.01 | 0.86 | 0.85 |
| MTG2 | 1.07 | 0.64 | 0.6 |
| MCM8 | 1 | 0.93 | 0.93 |
| CCDC197 | 1.09 | 0.47 | 0.43 |
| KIF27 | 1.2 | 1.07 | 0.89 |
| RRM2B | 1.31 | 1.11 | 0.85 |
| LARP1B | 1.04 | 0.86 | 0.83 |
| H2BC13 | 1.18 | 1.06 | 0.9 |
| SEC24B | 1.24 | 1.02 | 0.82 |
| TSSK4 | 0.98 | 0.94 | 0.96 |
| PSMD12 | 1.2 | 0.6 | 0.5 |
| FBXL20 | 0.87 | 0.7 | 0.8 |
| BDP1 | 1.15 | 0.69 | 0.6 |
| GJC2 | 1.07 | 0.58 | 0.54 |
| COL28A1 | 0.79 | 0.62 | 0.78 |
| BAHD1 | 0.96 | 0.91 | 0.95 |
| ASS1 | 1.09 | 1.05 | 0.96 |
| SOCS2 | 1.02 | 0.82 | 0.8 |
| AMMECR1 | 1.15 | 1.06 | 0.92 |
| LAMTOR3 | 0.89 | 0.8 | 0.9 |
| MOSPD1 | 1.08 | 0.82 | 0.76 |
| SELENON | 1.38 | 1.02 | 0.74 |
| PTTG2 | 1.12 | 0.64 | 0.57 |
| MYBPC1 | 0.92 | 0.74 | 0.8 |
| ATP2B4 | 0.94 | 1.02 | 1.08 |
| DAW1 | 0.96 | 0.86 | 0.9 |
| ZBTB43 | 0.9 | 0.78 | 0.87 |
| YIF1A | 0.57 | 0.52 | 0.92 |
| NSMCE3 | 1.27 | 0.79 | 0.62 |
| MECP2 | 0.96 | 0.46 | 0.48 |
| SPAG11A | 0.94 | 0.83 | 0.88 |
| FCGR3A | 0.76 | 0.64 | 0.84 |
| NDUFAF1 | 0.97 | 0.58 | 0.6 |
| SDHD | 1.07 | 0.91 | 0.85 |
| LILRA5 | 0.98 | 0.59 | 0.6 |
